Measured values reported in paper PMC8157631.
These are yes or no findings as the source states them, for the method shown. Binding seen in cells or lysates may run through a third protein. Tags and fused reporters may be left off the sequences shown.

Sequences of proteins named here, by UniProt entry; tags and fusion partners are left off. Residues count along the entry.
UniProt Q00604, residues 25-133: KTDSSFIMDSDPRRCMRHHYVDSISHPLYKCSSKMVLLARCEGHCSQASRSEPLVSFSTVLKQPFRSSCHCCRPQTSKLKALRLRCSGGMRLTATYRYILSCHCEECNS

T1: Retinoschisin (RS1) (human (endogenous in human retina)) (UniProt O15537)
T1 sequence: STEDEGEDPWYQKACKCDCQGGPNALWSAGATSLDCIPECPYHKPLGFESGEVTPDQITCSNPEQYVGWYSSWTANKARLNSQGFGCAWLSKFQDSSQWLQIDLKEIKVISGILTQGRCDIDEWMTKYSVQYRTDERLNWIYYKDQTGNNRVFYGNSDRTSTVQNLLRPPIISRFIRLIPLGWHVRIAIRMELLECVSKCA


Key:
[1] = molecular target: T1, Retinoschisin (RS1) (human (endogenous in human retina)); assay: co-IP; co-immunoprecipitation from human donor retinal tissue with RS1 or NDP antibody, immunoblot of the IP fraction
[2] = molecular target: Norrin (NDP) (human (endogenous in human retina)) (UniProt Q00604); assay: as above

| binding [1] | binding [2] | Molecule |
| --- | --- | --- |
| no binding |  | Norrin (NDP) (from UniProt Q00604 25-133) |
|  | no binding | Retinoschisin (RS1) (protein, UniProt O15537 24-224) STEDEGEDPWYQKACKCDCQGGPNALWSAGATSLDCIPECPYHKPLGFESGEVTPDQITCSNPEQYVGWYSSWTANKARLNSQGFGCAWLSKFQDSSQWLQIDLKEIKVISGILTQGRCDIDEWMTKYSVQYRTDERLNWIYYKDQTGNNRVFYGNSDRTSTVQNLLRPPIISRFIRLIPLGWHVRIAIRMELLECVSKCA |
